Results deposited as PubChem BioAssay AID1259308 (NCATS, 2017)
Here is an unselected part of about 59,000 deposited reagents. Of all reagents, about 1,510 (2.6%) got an active call. 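Calls use total luciferase alone and ignore viability, so some active siRNAs may act by altering cell number.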 The numbers tell different reagents against one gene apart.

Aim: 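Candidate targets for better recombinant protein yield in mammalian cells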 (primary screen)
System: human HEK293 embryonic kidney cells stably expressing firefly luciferase (HEK-CMV-Luc2-Hygro)
Reagents: single siRNA against human genes, 0.8 pmol siRNA per well
Duration: 72 h
Measurement: 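Reporter luminescence and viable-cell signal on separate replicate plates, given as percent of non-targeting control and median/MAD z-scores, plus per-cell luciferase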
Reading the numbers: total luciferase, z-score and total luciferase, % of control: higher = more reporter protein produced; luciferase per cell, z-score: higher = more reporter output per viable cell; viable cells, % of control: higher = more viable cells
Rule for the call: 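Active when the median/MAD z-score for overall luciferase is greater than 3; a gene was taken forward for validation with new siRNAs if at least two of its three siRNAs passed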
Calls: active = raised luciferase; inactive = no rise

total luciferase, z-score | total luciferase, % of control | luciferase per cell, z-score | viable cells, % of control | activity call | gene | reagent no.
0.323 | 88.3 | 0.478 | 87 | inactive | ALPK2 | 1
-1.08 | 60.4 | -1.27 | 94.4 | inactive | ALPK2 | 2
-0.0271 | 81.3 | -1.02 | 119 | inactive | ALPK2 | 3
0.353 | 88.9 | 0.998 | 76.4 | inactive | FAM3C | 1
-1.05 | 61.1 | -1.11 | 91.4 | inactive | FAM3C | 2
-0.972 | 62.5 | -1.24 | 96.9 | inactive | FAM3C | 3
-0.128 | 79.3 | -0.103 | 91.1 | inactive | GPRC5B | 1
4.73 | 176 | 2.71 | 96.5 | active | GPRC5B | 2
0.42 | 90.2 | 0.435 | 89.9 | inactive | GPRC5B | 3
-1.34 | 55.1 | -1.39 | 88.9 | inactive | TUBB2A | 1
-1.03 | 61.4 | -1.33 | 97.4 | inactive | TUBB2A | 2
-2.2 | 38.1 | -2.37 | 79.5 | inactive | TUBB2A | 3
-0.374 | 74.4 | -0.467 | 94.1 | inactive | MTDH | 1
0.848 | 98.7 | 0.729 | 91.1 | inactive | MTDH | 2
-0.84 | 65.2 | -0.286 | 78.5 | inactive | MTDH | 3
2.19 | 126 | 1.79 | 87.6 | inactive | H2BC5 | 1
-2.77 | 26.9 | -2.22 | 53.9 | inactive | H2BC5 | 2
-0.724 | 67.5 | -0.0475 | 76.4 | inactive | H2BC5 | 3
-0.623 | 69.5 | -1.4 | 112 | inactive | SLC3A2 | 1
-0.636 | 69.2 | -0.737 | 93.9 | inactive | SLC3A2 | 2
0.413 | 90.1 | -0.0446 | 102 | inactive | SLC3A2 | 3

Called active (from the list above):
total luciferase, z-score | total luciferase, % of control | luciferase per cell, z-score | viable cells, % of control | activity call | gene | reagent no.
4.73 | 176 | 2.71 | 96.5 | active | GPRC5B | 2

Continued.
total luciferase, z-score | total luciferase, % of control | luciferase per cell, z-score | viable cells, % of control | activity call | gene | reagent no.
0.722 | 96.2 | 0.635 | 91 | inactive | PRCD | 1
-1.06 | 60.9 | -1.34 | 96.9 | inactive | PRCD | 2
-0.697 | 68 | 0.382 | 68.8 | inactive | PRCD | 3
0.868 | 99.2 | 1.49 | 74.9 | inactive | RPL35P1 | 1
-2.68 | 28.6 | -2.64 | 64.1 | inactive | RPL35P1 | 2
0.126 | 84.4 | -0.0843 | 96.4 | inactive | RPL35P1 | 3
0.415 | 90.1 | 1.21 | 73.3 | inactive | KIAA1328 | 1
-0.615 | 69.7 | -0.506 | 88.9 | inactive | KIAA1328 | 2
1.87 | 119 | 1.48 | 90.2 | inactive | KIAA1328 | 3
-0.48 | 72.3 | -0.57 | 93.9 | inactive | PA2G4 | 1
0.471 | 91.3 | -0.372 | 112 | inactive | PA2G4 | 2
-0.339 | 75.1 | 1.48 | 56.9 | inactive | PA2G4 | 3
-0.945 | 63.1 | -0.798 | 87 | inactive | PAGE2 | 1
1.5 | 112 | 1.4 | 86.4 | inactive | PAGE2 | 2
1.18 | 105 | 1.04 | 89.4 | inactive | PAGE2 | 3
-0.835 | 65.3 | -0.579 | 85 | inactive | OTOP1 | 1
0.578 | 93.4 | 0.368 | 94.7 | inactive | OTOP1 | 2
0.237 | 86.6 | -0.402 | 108 | inactive | OTOP1 | 3
